Compound in this test: Nc1ncnc2c1ncn2[C@@H]1O[C@H](COP(=O)(O)OP(=O)(O)NP(=O)(O)O)[C@@H](O)[C@H]1O [adenylyl imidodiphosphate]
Briefly: NP40-soluble protein abundance relative to vehicle (solubility fold change) (ratio); higher = more soluble protein in presence of AMP-PNP. Put shortly: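 Each value is a fold change relative to the detergent-processed vehicle, calculated per replicate from vsn-normalised intensities. Jurkat crude lysate received eight concentrations (0.1 to 10 mM) for 10 min at room temperature and 3 min at 37 °C, then was solubilised in 0.8% NP40 with benzonase (60 min, 4 °C). The ultracentrifuged supernatant was TMT-labelled and run by LC-MS/MS in three independent experiments.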

Amino acid sequences for entries named in this document (tags omitted). A change or cut given only in a name is not applied to a line headed by its entry.
UniProt O14653: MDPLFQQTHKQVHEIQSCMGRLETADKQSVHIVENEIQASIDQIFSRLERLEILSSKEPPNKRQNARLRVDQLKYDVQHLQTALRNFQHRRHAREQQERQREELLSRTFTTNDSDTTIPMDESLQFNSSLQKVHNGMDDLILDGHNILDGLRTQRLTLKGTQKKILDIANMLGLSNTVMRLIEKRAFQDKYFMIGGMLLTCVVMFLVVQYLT
UniProt Q9UBU9: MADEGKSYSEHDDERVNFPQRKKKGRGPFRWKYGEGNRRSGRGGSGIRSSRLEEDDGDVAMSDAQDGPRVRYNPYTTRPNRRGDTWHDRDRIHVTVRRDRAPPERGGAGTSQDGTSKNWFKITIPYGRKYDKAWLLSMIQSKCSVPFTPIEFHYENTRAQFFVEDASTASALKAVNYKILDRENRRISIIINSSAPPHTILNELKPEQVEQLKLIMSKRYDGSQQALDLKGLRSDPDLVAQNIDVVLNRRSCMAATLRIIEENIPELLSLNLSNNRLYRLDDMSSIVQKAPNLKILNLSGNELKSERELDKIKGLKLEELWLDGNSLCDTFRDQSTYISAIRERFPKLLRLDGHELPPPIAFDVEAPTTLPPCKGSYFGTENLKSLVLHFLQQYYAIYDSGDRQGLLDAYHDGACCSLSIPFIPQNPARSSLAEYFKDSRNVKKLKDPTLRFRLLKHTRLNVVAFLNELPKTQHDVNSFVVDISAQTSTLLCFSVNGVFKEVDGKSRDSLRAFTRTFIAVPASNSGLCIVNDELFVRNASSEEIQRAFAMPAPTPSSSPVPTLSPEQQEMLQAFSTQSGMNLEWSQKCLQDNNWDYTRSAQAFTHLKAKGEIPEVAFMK
UniProt O95159: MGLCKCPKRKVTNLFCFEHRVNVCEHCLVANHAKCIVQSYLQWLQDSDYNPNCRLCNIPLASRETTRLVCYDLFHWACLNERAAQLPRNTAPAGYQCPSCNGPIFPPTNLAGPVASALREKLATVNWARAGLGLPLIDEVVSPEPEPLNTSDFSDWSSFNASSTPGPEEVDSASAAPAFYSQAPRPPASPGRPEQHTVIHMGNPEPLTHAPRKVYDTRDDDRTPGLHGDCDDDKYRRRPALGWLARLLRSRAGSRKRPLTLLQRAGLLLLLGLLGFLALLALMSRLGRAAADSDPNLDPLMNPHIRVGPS
UniProt Q12849: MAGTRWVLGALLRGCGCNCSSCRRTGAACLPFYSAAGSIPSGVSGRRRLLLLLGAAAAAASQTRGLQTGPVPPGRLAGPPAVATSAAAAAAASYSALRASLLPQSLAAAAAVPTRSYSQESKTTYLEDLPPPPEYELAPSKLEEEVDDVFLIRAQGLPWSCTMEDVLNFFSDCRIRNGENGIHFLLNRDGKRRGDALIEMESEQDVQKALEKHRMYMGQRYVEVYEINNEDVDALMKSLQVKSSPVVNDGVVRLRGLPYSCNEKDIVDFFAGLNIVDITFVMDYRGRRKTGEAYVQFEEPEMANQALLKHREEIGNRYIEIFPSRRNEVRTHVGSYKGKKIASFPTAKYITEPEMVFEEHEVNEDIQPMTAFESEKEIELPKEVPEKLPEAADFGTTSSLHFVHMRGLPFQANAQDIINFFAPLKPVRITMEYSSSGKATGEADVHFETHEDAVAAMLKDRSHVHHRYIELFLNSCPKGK
UniProt O75439: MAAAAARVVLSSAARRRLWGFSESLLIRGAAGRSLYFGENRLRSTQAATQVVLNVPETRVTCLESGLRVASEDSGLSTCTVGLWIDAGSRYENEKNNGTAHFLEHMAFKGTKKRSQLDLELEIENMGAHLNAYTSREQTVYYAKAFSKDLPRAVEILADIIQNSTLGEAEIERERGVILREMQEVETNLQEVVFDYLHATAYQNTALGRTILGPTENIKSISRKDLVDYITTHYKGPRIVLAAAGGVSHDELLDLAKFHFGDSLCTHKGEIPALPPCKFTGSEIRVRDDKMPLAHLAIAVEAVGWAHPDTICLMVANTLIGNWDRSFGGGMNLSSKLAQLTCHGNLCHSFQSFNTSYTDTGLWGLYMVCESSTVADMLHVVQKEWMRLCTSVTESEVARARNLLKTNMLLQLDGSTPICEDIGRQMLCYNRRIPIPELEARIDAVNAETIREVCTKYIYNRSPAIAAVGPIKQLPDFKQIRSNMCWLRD
UniProt Q9NYL4: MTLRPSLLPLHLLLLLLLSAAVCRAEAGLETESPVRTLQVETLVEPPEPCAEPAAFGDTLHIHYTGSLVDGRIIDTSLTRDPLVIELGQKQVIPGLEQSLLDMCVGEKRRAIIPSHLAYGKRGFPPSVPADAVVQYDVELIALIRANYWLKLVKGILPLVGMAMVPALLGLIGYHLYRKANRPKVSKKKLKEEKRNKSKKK
UniProt Q13557, whole entry: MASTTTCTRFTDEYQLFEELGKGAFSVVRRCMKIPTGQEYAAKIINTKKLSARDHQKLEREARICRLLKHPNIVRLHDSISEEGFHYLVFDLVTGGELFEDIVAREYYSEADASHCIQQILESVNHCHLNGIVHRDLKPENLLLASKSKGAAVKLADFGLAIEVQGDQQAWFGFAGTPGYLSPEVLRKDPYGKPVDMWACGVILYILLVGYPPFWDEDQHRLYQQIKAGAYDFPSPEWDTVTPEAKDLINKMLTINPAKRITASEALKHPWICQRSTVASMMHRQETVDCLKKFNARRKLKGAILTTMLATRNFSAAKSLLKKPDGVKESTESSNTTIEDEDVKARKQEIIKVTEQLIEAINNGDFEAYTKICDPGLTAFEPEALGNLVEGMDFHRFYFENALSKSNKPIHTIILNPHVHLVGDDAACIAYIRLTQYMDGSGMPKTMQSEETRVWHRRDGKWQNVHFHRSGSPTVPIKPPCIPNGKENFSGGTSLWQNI
UniProt P32780: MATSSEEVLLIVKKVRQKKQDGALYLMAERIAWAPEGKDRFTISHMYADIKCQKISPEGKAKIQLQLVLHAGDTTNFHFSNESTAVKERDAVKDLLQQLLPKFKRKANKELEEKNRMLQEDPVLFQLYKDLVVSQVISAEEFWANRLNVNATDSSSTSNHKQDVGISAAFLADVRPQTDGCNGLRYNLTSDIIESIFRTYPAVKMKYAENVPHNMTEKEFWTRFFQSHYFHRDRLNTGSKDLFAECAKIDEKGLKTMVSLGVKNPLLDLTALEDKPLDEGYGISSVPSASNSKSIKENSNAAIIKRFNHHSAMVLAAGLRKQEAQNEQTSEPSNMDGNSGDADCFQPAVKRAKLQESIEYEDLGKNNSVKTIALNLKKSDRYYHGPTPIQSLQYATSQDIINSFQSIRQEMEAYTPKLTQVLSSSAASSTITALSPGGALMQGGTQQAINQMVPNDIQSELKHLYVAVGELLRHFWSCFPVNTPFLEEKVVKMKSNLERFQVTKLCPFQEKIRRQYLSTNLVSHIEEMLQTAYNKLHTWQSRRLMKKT
UniProt Q96RT7, whole entry: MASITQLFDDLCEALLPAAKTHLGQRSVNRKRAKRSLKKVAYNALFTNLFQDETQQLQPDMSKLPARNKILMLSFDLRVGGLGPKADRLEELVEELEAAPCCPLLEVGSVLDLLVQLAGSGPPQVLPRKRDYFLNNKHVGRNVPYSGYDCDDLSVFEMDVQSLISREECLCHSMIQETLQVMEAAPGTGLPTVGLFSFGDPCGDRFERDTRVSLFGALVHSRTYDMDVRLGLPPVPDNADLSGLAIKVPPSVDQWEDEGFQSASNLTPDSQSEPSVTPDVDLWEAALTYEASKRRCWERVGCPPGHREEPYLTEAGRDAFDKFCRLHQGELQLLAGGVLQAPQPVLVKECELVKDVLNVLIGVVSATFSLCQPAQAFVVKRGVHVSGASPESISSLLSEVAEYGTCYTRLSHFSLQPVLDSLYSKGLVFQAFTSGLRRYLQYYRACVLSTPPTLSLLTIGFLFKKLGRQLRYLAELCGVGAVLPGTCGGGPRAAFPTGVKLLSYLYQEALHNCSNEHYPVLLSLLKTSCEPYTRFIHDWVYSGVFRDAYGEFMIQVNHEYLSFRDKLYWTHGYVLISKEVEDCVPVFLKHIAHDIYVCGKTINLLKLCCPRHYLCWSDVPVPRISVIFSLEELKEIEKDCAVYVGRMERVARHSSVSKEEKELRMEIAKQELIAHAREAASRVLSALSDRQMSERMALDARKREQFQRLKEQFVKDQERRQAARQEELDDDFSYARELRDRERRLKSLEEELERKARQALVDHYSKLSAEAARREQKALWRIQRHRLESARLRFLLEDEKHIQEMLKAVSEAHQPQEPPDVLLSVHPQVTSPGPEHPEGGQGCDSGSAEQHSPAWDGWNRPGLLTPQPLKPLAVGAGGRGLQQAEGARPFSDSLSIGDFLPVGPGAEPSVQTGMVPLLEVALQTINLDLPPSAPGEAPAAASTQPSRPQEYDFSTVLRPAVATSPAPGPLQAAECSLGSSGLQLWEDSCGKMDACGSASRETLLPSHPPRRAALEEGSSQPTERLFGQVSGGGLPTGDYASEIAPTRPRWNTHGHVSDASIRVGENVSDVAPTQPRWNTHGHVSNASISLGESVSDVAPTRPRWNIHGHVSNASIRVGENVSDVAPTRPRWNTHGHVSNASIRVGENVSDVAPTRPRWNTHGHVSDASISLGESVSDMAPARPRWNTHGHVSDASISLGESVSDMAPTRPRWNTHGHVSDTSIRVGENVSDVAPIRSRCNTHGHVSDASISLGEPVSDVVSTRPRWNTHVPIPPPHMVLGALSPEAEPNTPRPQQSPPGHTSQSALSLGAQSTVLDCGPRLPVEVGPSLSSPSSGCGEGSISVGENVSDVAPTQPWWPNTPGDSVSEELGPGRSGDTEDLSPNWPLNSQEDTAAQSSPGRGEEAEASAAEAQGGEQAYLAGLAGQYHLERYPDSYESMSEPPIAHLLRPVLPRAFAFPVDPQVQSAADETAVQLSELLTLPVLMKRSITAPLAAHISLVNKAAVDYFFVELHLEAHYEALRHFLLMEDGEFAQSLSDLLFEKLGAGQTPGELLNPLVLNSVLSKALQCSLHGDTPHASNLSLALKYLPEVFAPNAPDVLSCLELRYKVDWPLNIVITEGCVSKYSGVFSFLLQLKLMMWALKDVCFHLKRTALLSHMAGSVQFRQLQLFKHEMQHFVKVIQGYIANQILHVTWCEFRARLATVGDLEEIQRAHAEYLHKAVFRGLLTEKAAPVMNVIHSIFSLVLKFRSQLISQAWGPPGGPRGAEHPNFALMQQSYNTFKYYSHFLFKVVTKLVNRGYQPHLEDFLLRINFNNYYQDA
UniProt Q9UQV4: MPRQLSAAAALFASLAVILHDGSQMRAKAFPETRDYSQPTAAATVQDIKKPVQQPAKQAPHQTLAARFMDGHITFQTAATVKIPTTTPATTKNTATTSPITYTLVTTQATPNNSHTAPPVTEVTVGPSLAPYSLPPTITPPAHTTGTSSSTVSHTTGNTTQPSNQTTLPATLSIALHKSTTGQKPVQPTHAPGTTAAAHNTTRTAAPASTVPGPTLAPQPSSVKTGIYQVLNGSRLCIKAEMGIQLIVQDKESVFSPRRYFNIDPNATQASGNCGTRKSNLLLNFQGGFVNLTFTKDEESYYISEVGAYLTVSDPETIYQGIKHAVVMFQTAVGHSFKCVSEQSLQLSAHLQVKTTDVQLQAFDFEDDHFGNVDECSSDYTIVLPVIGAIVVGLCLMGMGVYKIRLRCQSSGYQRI
UniProt P61421, whole entry: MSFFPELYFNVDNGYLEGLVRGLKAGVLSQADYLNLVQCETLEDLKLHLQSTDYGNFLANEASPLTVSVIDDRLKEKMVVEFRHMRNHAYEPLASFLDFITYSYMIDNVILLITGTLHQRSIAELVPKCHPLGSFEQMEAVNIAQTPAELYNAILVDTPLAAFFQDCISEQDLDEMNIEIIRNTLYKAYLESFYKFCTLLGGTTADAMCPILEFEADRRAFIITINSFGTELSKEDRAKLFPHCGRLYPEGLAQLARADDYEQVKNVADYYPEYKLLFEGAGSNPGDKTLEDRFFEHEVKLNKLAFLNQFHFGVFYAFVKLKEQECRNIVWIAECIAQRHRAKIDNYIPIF
UniProt Q13155: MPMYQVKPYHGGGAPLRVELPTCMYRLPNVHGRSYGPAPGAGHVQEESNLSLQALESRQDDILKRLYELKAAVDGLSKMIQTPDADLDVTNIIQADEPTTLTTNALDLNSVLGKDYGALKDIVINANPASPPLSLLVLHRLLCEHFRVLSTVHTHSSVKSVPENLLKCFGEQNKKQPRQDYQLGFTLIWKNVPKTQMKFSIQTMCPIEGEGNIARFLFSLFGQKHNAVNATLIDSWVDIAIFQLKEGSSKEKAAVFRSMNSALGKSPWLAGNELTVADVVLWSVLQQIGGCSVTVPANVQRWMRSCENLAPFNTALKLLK

± gives the standard deviation of the averaged measurements. The list shows a part of the results, in another mix than the full data.

Take “E7EQ34 and related entries (UniProt O14653+E7EQ34)”: the NP40-soluble protein abundance reads like this: (concentration: 1mM) 1.01 ± 0.034; (concentration: 2mM) 1.08 ± 0.09; (concentration: 4mM) 1.04 ± 0.033; (concentration: 6mM) 1.03 ± 0.031; (concentration: 8mM) 0.998 ± 0.039; (concentration: 10mM) 1.08 ± 0.063.

As for “E9PIN3 and related entries (UniProt Q9UBU9)”, the NP40-soluble protein abundance reads like this: (concentration: 1mM) 1.01 ± 0.018; (concentration: 2mM) 0.998 ± 0.058; (concentration: 4mM) 1.07 ± 0.014; (concentration: 6mM) 1.14 ± 0.046; (concentration: 8mM) 1.18 ± 0.032; (concentration: 10mM) 1.26 ± 0.032.

As for “E9PNY1 and related entries (UniProt O95159)”, the NP40-soluble protein abundance (concentration: 1mM) is 0.966 ± 0.024; the NP40-soluble protein abundance (concentration: 2mM) came out at 0.968 ± 0.038; the NP40-soluble protein abundance (concentration: 4mM) is 0.948 ± 0.021; the NP40-soluble protein abundance (concentration: 6mM) was found to be 1.01 ± 0.057; the NP40-soluble protein abundance (concentration: 8mM) worked out at 1.01 ± 0.045; the NP40-soluble protein abundance (concentration: 10mM) turned out to be 0.984 ± 0.012.

Turning to “F5H5I6 and related entries (UniProt Q12849)”, the NP40-soluble protein abundance by setting is: (concentration: 1mM) 1.01 ± 0.018; (concentration: 2mM) 1.01 ± 0.018; (concentration: 4mM) 1.01 ± 0.014; (concentration: 6mM) 0.976 ± 0.027; (concentration: 8mM) 0.972 ± 0.013; (concentration: 10mM) 0.95 ± 0.018.

On to “F8WEA6 and related entries (UniProt O75439)”, for which the NP40-soluble protein abundance was 1.01 ± 0.032 (concentration: 1mM); 0.994 ± 0.05 (concentration: 2mM); 0.998 ± 0.022 (concentration: 4mM); 0.99 ± 0.021 (concentration: 6mM); 0.991 ± 0.02 (concentration: 8mM); 0.99 ± 0.057 (concentration: 10mM).

On to “F8VU90 and related entries (UniProt Q9NYL4)”, for which the NP40-soluble protein abundance is, setting by setting: (concentration: 1mM) 1.01 ± 0.042; (concentration: 2mM) 1.04 ± 0.043; (concentration: 4mM) 1.07 ± 0.062; (concentration: 6mM) 0.997 ± 0.031; (concentration: 8mM) 0.999 ± 0.084; (concentration: 10mM) 0.994 ± 0.12.

Take “E9PBG7 and related entries (UniProt Q13557)”: the NP40-soluble protein abundance was found to be 0.94 ± 0.026 (concentration: 1mM); 0.989 ± 0.049 (concentration: 2mM); 0.903 ± 0.017 (concentration: 4mM); 0.89 ± 0.054 (concentration: 6mM); 0.878 ± 0.022 (concentration: 8mM); 0.88 ± 0.027 (concentration: 10mM).

Turning to “E9PM51 and related entries (UniProt P32780)”, the NP40-soluble protein abundance (concentration: 1mM) came to 1.01 ± 0.021; the NP40-soluble protein abundance (concentration: 2mM) stood at 1.04 ± 0.037; the NP40-soluble protein abundance (concentration: 4mM) came out at 1.044 ± 0.0094; the NP40-soluble protein abundance (concentration: 6mM) amounted to 1.06 ± 0.012; the NP40-soluble protein abundance (concentration: 8mM) was found to be 1.05 ± 0.053; the NP40-soluble protein abundance (concentration: 10mM) was 1.03 ± 0.06.

Regarding “E7EQL8 and related entries (UniProt Q96RT7)”, the NP40-soluble protein abundance by setting is: (concentration: 1mM) 1.01 ± 0.026; (concentration: 2mM) 1.02 ± 0.012; (concentration: 4mM) 1.01 ± 0.022; (concentration: 6mM) 1.01 ± 0.018; (concentration: 8mM) 0.9878 ± 0.0061; (concentration: 10mM) 1.01 ± 0.029.

As for “E7ETP9 and related entries (UniProt Q9UQV4)”, the NP40-soluble protein abundance reads like this: (concentration: 1mM) 0.99 ± 0.02; (concentration: 2mM) 1.06 ± 0.073; (concentration: 4mM) 1.019 ± 0.0017; (concentration: 6mM) 0.997 ± 0.015; (concentration: 8mM) 0.995 ± 0.036; (concentration: 10mM) 1.03 ± 0.029.

On to “F5GYQ1 and related entries (UniProt P61421)”, for which the NP40-soluble protein abundance reads like this: (concentration: 1mM) 1.01 ± 0.037; (concentration: 2mM) 0.922 ± 0.086; (concentration: 4mM) 0.939 ± 0.035; (concentration: 6mM) 0.898 ± 0.071; (concentration: 8mM) 0.924 ± 0.076; (concentration: 10mM) 0.851 ± 0.062.

For the target “F8W689 and related entries (UniProt P48382)”, the NP40-soluble protein abundance reads like this: (concentration: 1mM) 1.016 ± 0.0037; (concentration: 2mM) 1.09 ± 0.11; (concentration: 4mM) 1.05 ± 0.045; (concentration: 6mM) 1.1 ± 0.046; (concentration: 8mM) 1.08 ± 0.054; (concentration: 10mM) 1.09 ± 0.027.

Take “G3V0H0 and related entries (UniProt O43913)”: the NP40-soluble protein abundance is 0.9472 ± 0.007 (concentration: 1mM); 0.88 ± 0.088 (concentration: 2mM); 0.944 ± 0.06 (concentration: 4mM); 0.946 ± 0.033 (concentration: 6mM); 0.957 ± 0.024 (concentration: 8mM); 0.949 ± 0.036 (concentration: 10mM).

Turning to “F8W950 and related entries (UniProt Q13155)”, the NP40-soluble protein abundance is, setting by setting: (concentration: 1mM) 0.987 ± 0.098; (concentration: 2mM) 0.978 ± 0.098; (concentration: 4mM) 0.976 ± 0.13; (concentration: 6mM) 0.943 ± 0.15; (concentration: 8mM) 0.924 ± 0.14; (concentration: 10mM) 0.931 ± 0.16.

Regarding “E9PB61 and related entries (UniProt Q86V81)”, the NP40-soluble protein abundance (concentration: 1mM) stood at 0.969 ± 0.032; the NP40-soluble protein abundance (concentration: 2mM) came out at 1.08 ± 0.042; the NP40-soluble protein abundance (concentration: 4mM) turned out to be 1.09 ± 0.027; the NP40-soluble protein abundance (concentration: 6mM) came to 1.27 ± 0.081; the NP40-soluble protein abundance (concentration: 8mM) worked out at 1.41 ± 0.14; the NP40-soluble protein abundance (concentration: 10mM) amounted to 1.6 ± 0.28.

(Values after the supplement of paper PMC6411743.)
